Our source for the z-score values is PubChem BioAssay AID1508600 (Functional Genomics Laboratory (NCATS/FGL), 2020).

Out of some 53,000 sequences screened, about 3,700 (7%) were called active.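 Rule for the calls: active = gene knockdowns whose robust z-score for IL-1 alpha signal is at least 2 or at most -2, so actives lie on both sides; inactive = the rest.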 The list shows a part of the results.

This experiment can be described thus: Components of the Cytosolic LPS Sensing Pathway: Gene Identification via Genome-wide siRNA Screen.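 Note: robust z of the log signal after scaling to non-targeting control siRNA wells of the plate.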 The note with it: RAW264.7 macrophages, IL-1a HTRF, actives lie on both sides, screened at 100 nM (by protocol), cells primed 5 h with Pam3CSK4 first. The procedure, abridged: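 Cells (RAW264.7, 1×10^4 per well) were transfected with siRNA at 100 nM and cultured 48h at 37 degrees C. Pam3CSK4 was added for 5 hours; LipidA transfection followed for 24 hour. IL-1a was then measured by HTRF.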
Consider GGUUGUUCGUGGACACUACTT against Rpl26, for which the z-score was inactive: -0.404.

Consider GGCAAAGAAUACUAUGUGUTT against Prss48, for which the z-score was inactive: -0.181.

With GGAUGAUGACUUUGAGAAGTT against Map2k1, the z-score is inactive: 1.52.

On to GCAGACAUUACCCUAUAGUTT against Mtf2, for which the z-score was inactive: 0.21.

For GAGAAUGAGUUCUGCCCAGTT against Lhb, the z-score is active: 2.24.

For the sequence GCUUUUCCACAUUUUAAGGTT against Gtpbp10, the z-score was inactive: 0.391.

In the case of GGAUUCAUUCAACCCAUGGTT against Olfr1441, the z-score was inactive: -1.54.

In the case of CCUACAUGUAAUCCAUUUUTT against Rab31, the z-score is inactive: 0.00773.

On to GCGUUCACGGUCAAAAAAUTT against Fbxw10, for which the z-score is inactive: -0.586.

For the sequence “GCGCAACUAACUCACAACATT against 4930556L07Rik”, the z-score is inactive: 0.705.

As to GGACCCUCUGCUCUUCAUUTT against Slc4a9, the z-score is inactive: 2.

In the case of “CCUUUAGCAUAAUAGGAAUTT against 9230109A22Rik”, the z-score was inactive: -0.561.

Consider GCUUCUCUCUUCAUCUAUGTT against Olfr524, for which the z-score is inactive: -0.685.

Turning to CGAUACCUUUAGUUGACUATT against Hcrtr2, the z-score is inactive: -0.445.

Turning to GCUUGCUAUACGUGGAGAUTT against H2az1, the z-score was inactive: -0.803.

As for GGACCUGUCCAUCUUCAUCTT against Scn1b, the z-score was active: 3.87.

For the sequence GGGAAUACUGUGAACACCGTT against Gm4983, the z-score was inactive: 0.592.

Turning to GCCAAUAAUUGUCACACAUTT against Adgrg3, the z-score is inactive: 1.94.

For GCAAUGAACUAUGAAGGCATT against Npm1, the z-score is inactive: -0.32.

For the sequence GGUGAGAACUCAGAUAAGCTT against Txk, the z-score was inactive: -1.06.

As for CCUUUGAAUCCCAGGUUCATT against Lmo1, the z-score is active: 3.05.

Regarding AAAUUCUGCCUGACGAGAUTT against Scgb3a1, the z-score was inactive: 0.599.

As for GGUAUAGAUCAGAAGAACUTT against Bfar, the z-score is inactive: 1.81.

With GGUCUACCACUUCAACUUCTT against Sema7a, the z-score was inactive: 0.495.

For the sequence GCUCCCACCCUUAAAUAAUTT against Ptgr1, the z-score was inactive: -1.26.

GGCUCAUGGAAAACUCUAUTT against Hspa9: the z-score was active: 2.24.

For the sequence GGUCUACCCAUGACCUACUTT against Nme4, the z-score was inactive: -1.45.

Turning to GGAUGUGAAGAUCUAUCUUTT against Itm2c, the z-score was inactive: 0.573.

For the sequence GUACGAAGACUUCUCUAGUTT against Ankrd33b, the z-score was inactive: 0.101.

Turning to GGUACCUGUUUGUUUUACATT against Epb41l4b, the z-score is inactive: 0.75.

With UGGCCUGAUCAUGAACAGUTT against S100a7a, the z-score was inactive: 1.21.

As to GCAACAACAACAUUGCCUATT against Tmsb15l, the z-score is inactive: -0.448.

Turning to GGGAAACUCAAUGUAGAUGTT against Arhgap5, the z-score is inactive: -1.01.

On to GGCUUGUUAAUGAAUGCACTT against Ankrd9, for which the z-score was inactive: -0.894.

Consider GGUGCUAAAGUCAAAAAACTT against Fras1, for which the z-score was inactive: 0.218.

With CCCGGGUGCAAAACAUUCATT against Cenpu, the z-score is inactive: 0.939.

Regarding GGUGUACCAGCAAACUUUUTT against Nhlh2, the z-score was inactive: 0.117.

For the sequence GGGAAUUGGCUAUCACAGATT against Retreg3, the z-score is inactive: 0.23.

For the sequence GCCACACUCCAUAAUUAGGTT against Fam117b, the z-score was inactive: 1.15.

As for GCCAUUUCAUACAUUUUACTT against Atg2b, the z-score is inactive: -0.332.

Turning to GGUCUAGCAGCAAUGAAUGTT against Ggt6, the z-score was inactive: -0.693.

With GCAGUGUAUUGGUAAUCAATT against Olfr630, the z-score was inactive: 1.44.

Take GGUCGAUUUGUCCUUGUGCTT against Rassf7: the z-score is active: -2.04.

As for GCUUAAAGUGCAUCGCCAATT against Stc1, the z-score is inactive: 0.0751.

As for GGAUGUGUUGUCUUUGGAUTT against Nwd1, the z-score was inactive: -0.658.

Turning to CCCGGAUCUGAAAACUGAUTT against Capns1, the z-score was inactive: 0.192.

Regarding GGAGAGCUCUAUGGAUCGATT against Fgf16, the z-score is inactive: 0.784.

For the sequence GGAUGUGAAGAGCAAUCAGTT against Pgp, the z-score is inactive: -1.91.

As for “GCCCAUGCCUAUGCUAAUGTT against A530095I07Rik”, the z-score is inactive: -0.225.

For the sequence GGUCUUUUCGAACUCUUCATT against Senp2, the z-score was inactive: 0.488.

For the sequence GGCUGCUGUCAUUAUUUGUTT against Terf2, the z-score is inactive: -0.768.

Take GGCCCUUCAUUUAGUGGAUTT against Trim44: the z-score is inactive: 0.292.

As to GGACCAAGGCUUUAUGAACTT against Crygn, the z-score is inactive: 0.404.

Consider GCGACUAUCUAACACGAGUTT against Sacm1l, for which the z-score is inactive: -1.07.

As to GGGACAGAUACUUCAGAAGTT against Kcnv1, the z-score was inactive: 0.0736.

As to GGAAUUCUUCCCAUCUGUATT against Lmf2, the z-score was inactive: 0.409.

Regarding GGUUUUCUACUUCUCAAUUTT against Sec61g, the z-score is inactive: 0.144.

GGUAAUUUUGAAUGUGGCATT against Lemd2: the z-score was inactive: -1.73.

Regarding GGUAAAAAACUGUCCUUCATT against Zfp788, the z-score was inactive: 0.072.

Take GCUAAUCUAUCCGUGUCCUTT against B3gnt3: the z-score was inactive: -0.522.

For GGAACACUGGAAGAAAGAUTT against Arhgap35, the z-score is inactive: -1.21.

For the sequence CCAGAUGCAUCAAAAUUUUTT against Tbc1d15, the z-score is inactive: -0.415.

As for GCUAUUCAAUGGACCAGAATT against Olfr490, the z-score is active: -2.26.

For the sequence GGAGAAAAGGAUGUUGUUATT against Eepd1, the z-score was inactive: 1.71.

Take GGCUAUUGUACAACUUAUATT against Pafah1b2: the z-score is active: 2.1.

In the case of GGCCAGCAAAUUCAAAUCATT against Sp4, the z-score was inactive: 0.234.

With GGUUAAUUGUCGACUAGACTT against Pcdhgb5, the z-score is inactive: 0.803.

Turning to GCUCGCCAAUAUGUAUAUGTT against Fam120c, the z-score was inactive: -0.37.

GGUAUUGGAUAACAGAAUUTT against Rasgrp1: the z-score is inactive: -0.575.

As to GCGGAUGUUGAAAUGUUUATT against Shprh, the z-score is inactive: 0.254.

Take GCGCACACCAUGGAUAGAATT against Sult2a8: the z-score was inactive: -0.836.

Take UGCAACUGUUCAGAUUCUGTT against Olfr149: the z-score is inactive: -1.21.

For GGAAGAAAUGUUUUUUGGUTT against Hivep2, the z-score was inactive: -0.188.

Take CGUAUCAGAUAUAUCACAUTT against Isoc1: the z-score is inactive: 0.204.

As to CGGGAAACUUAGGUAUGAUTT against Olfr1009, the z-score is active: -3.05.

In the case of CGGGUGAGUGGAAAAACCATT against Atg9b, the z-score is inactive: -0.282.

GCAUAUGGUCCACUAAAAATT against Kcnj4: the z-score was inactive: 0.294.

In the case of GCUUAAAUUGACCUCAGUGTT against Nmi, the z-score was inactive: -1.78.

Regarding “GGGAGUUAUGUUGGUAUCATT against 1700029F12Rik”, the z-score was inactive: -1.38.

Consider GCUUCUGAAUUACAAAGCUTT against Cmah, for which the z-score is inactive: -0.205.

Turning to “CCACGAGAAUGUUGAUAACTT against A830031A19Rik”, the z-score was inactive: 0.274.

As for GCGGUCCAUCAUCAAACUCTT against Rpap2, the z-score is inactive: -1.3.

Regarding GGGAAUGUGUGCCUUGUUGTT against Olfr16, the z-score is inactive: -0.899.

With CCGCACAUGCUCUCAAAUATT against Polr3d, the z-score was inactive: -1.25.

In the case of GGCCAAGACACCCUUGUUUTT against Zfp524, the z-score was inactive: -0.376.

For the sequence CCAAACCACCUACCGUAAATT against Rnase9, the z-score is inactive: -0.681.

For CGAGAUUGACUCUAUUGGCTT against Psmc5, the z-score was inactive: -1.53.

As to GGGAGAGUUCCAUAAAUUGTT against Narf, the z-score was inactive: -0.728.

With GGAGCUAAUGGAAAACGGCTT against Tinagl1, the z-score is inactive: 0.182.

Consider GGUAGGAAACCUCUCAGAGTT against Kcnc1, for which the z-score is inactive: 0.85.

Regarding GGCAUUUUUCUUAGUGAUCTT against Olfr1277, the z-score was active: -2.04.

Regarding GGUCAACAUUUGCUGUAAGTT against Inhba, the z-score was inactive: -0.599.

On to GGACAUUGACACUACUCCATT against Cyp2c55, for which the z-score is inactive: -0.519.

Take GGUCUUCGUGUCGACAUUCTT against Gpr153: the z-score was inactive: -1.02.

With GGCUCUUCAUGAUCCUUUGTT against Clic4, the z-score is inactive: -1.21.

Regarding GCUAAUGGACGAUUUGAAGTT against Ube2j1, the z-score is inactive: -0.378.

Regarding GCCGGAUCCGAACAAGGAUTT against Pus7l, the z-score was inactive: 0.656.

For the sequence GGUGCUACAAGAAAUGUCUTT against F13b, the z-score is inactive: -0.435.

Turning to UCUUUGGCAACACUACCAUTT against Olfr1386, the z-score was inactive: 0.366.

With GGCAAGGUAGAGAUCAUCATT against Ggt5, the z-score was inactive: -1.1.

On to GGAUUGUGGCCUUCUUUGATT against Bcl2, for which the z-score is inactive: 0.217.

For the sequence GCCAUGACUAUUCCAGCUUTT against Lgals4, the z-score was inactive: -0.456.

In the case of GGAUAAGAGGGUGAAGUCATT against Cdyl2, the z-score is inactive: -1.06.

Turning to GGUGCUGAUCCUUCAAAGGTT against Lrrc66, the z-score was inactive: -0.205.

Regarding CCUCUCAACCACUGACUGATT against Gpatch4, the z-score was inactive: 0.836.

Take GGGCUUCUCCUAAUUCAGATT against Armcx3: the z-score was inactive: 1.09.
